From patent US20110275701

Tested on: thrombin
Experiment: activity assay
Settings: functional anticoagulation in vivo, not direct binding; ACT per subject at 6.0 mg/kg/hr infusion after 2 mg/kg bolus, about 3x baseline; protein details: endogenous plasma thrombin in healthy volunteers; single-stranded DNA

Sequence: CGCCTAGGTTGGGTAGGGTGGTGGCG [NU172 (ARC2172)]
- functional effect of the aptamer: active
